Results as given in paper PMC10163288.
Some of the results follow.

B1: il2ra_site1_2b5i_sap_21_mot_ceb06541b665a12e9032ae1d16718599_0001_000000200_0001_16_30_H_._HHH_b1_01400_0001_0000600031_0000001_0_0001_af2pred_dldesign_0_af2pre … (protein)
chain: SSSDIEELERYAADVIYRLKAEYKLTVEQTKKLEDLAIELIDAGVSKEEIERRLRELAEKLSSSS
B2: il2ra_site1_3nfp_sap_16_mot_HHH_b1_03236_000000173_0001_17_33_H_._HHH_b1_01532_0001_0000300008_0000001_0_0001_af2pred_0001_af2pred_1_swapped (protein)
chain: SSSSDKREEAQRLSRRIEELIKEGDHEEARELLEELEELARELGSPAAKILVERLEKRIDSSSSS
B3: il2ra_site2_3nfp_sap_18_mot_HHH_b1_08395_000000276_0001_20_37_H_._74ee64136907a37587970186735a14f9_0001_0001_0000200022_0000001_1_0001 (protein)
chain: SSSSDKEEEEVKELIERIEELIKNGNPEEARELLRRAAQLAWEINNPELFFKLAELLLELASSSS
B4: il2ra_site1_2b5i_sap_14_mot_HHH_b1_05947_000000126_0001_42_56_H_._HHH_b2_02221_af2_0001_0000100001_0000001_0_0001_af2pred_dldesign_0_af2pred (protein)
chain: SSSSSSEAFDKVEDLFNEAMKLKDLEKRKEVLEKAIEVAEAGKDKKTVEQLKKYLELISSSSSSS
B5: il2ra_site2_2erj_sap_26_mot_35d2dc24e2c4431f89e6f806b163ecf8_0001_af2_000000142_0001_35_50_H_._HHH_b2_06829_0001_0000200022_0000001_0_0001 (protein)
chain: SSSSDEEAREVAEASIEAAELARRGNEEEARELLEEAIEHFRELNNEFAVRFLEFALRYISSSSS
B6: il2ra_site1_2b5i_normal_mot_HHH_b1_02271_000000068_0001_1_16_H_._HHH_b1_07466_af2_0001_0000300006_0000001_0_af2pred_dldesign_0_af2pred (protein)
chain: SSSSSDIEKEFEKVKAEAEALKAAGKRREALELLNEAYKYVSEKGDDELLDEIEKLAKELSSSSS
B7: il2ra_site1_1z92_normal_mot_HHH_b2_00969_af2_000000010_0001_43_57_H_._HHH_b1_01772_0001_0000700040_0000001_0_af2pred_dldesign_0_af2pred (protein)
chain: SSSSSSSERVEELEDRAAKLLKERTPESLKELEKLLKEAEALGETKLAKDIKTYLELASSSSSSS
B8: il2ra_site2_2erj_sap_24_mot_dcd9809507f71d420582ead1f1e1bbb3_0001_000000226_0001_37_50_H_._HHH_b2_06428_0001_0000100002_0000001_0_0001 (protein)
chain: SSSSDEEEERVEELLEQAREAYEEGDLHLVYELAVEALHVASESNNPELQRLVAEVVERLASSSS
B9: il2ra_site1_3nfp_normal_mot_HHH_b1_08274_000000076_0001_43_57_H_._HHH_b2_06250_0001_0000300016_0000001_0 (protein)
chain: SSSSSSDAEELVEELLEEARHIEDPEEARRVFQEAFRIAAKHNDDEADRLILEFVREESSSSSSS
B10: il2ra_site1_1z92_sap_14_mot_HHH_b2_01411_000000211_0001_19_33_H_._HHH_b1_01160_af2_0001_0000100005_0000001_0_0001_af2pred_0001_af2pred (protein)
chain: DLSELLKELQEKDPEVKEIFEFLEEVNDEDPTDKEAQKILRLLLLAARRDDPELVREAKELVERR
B11: il2ra_site1_1z92_normal_mot_01209686ea234b34325f918445e6eade_0001_af2_000000154_0001_18_33_H_._HHH_b1_00430_0001_0000200014_0000001_0 (protein)
chain: SSSSDEEEEQLERIVEELVREYNLSEEEKEALEQDARAALRLGASEKYIEKALRRAAELASSSSS
B12: il2ra_site1_1z92_normal_mot_01209686ea234b34325f918445e6eade_0001_af2_000000154_0001_18_33_H_._HHH_b1_06581_0001_0000400055_0000001_0_af2pred_0001_af2pred (protein)
chain: SSSSDLEERAEEIVEELVRELNLSEEQERALRYAAENAVKAGFSEKSIERALRDLAELSLSSSSS
B13: il2ra_site1_3nfp_normal_mot_HHH_b1_01763_000000277_0001_1_20_H_._e97b41f4e209c0640d4e43cb61b66542_0001_0001_0000600038_0000001_0 (protein)
chain: DVEELVRLFRDAGSIEKAVEEALKLARRMGDPELERLLEEAKRLIQEGDPEEAEELLERFLRLLK
B14: il2ra_site1_1z92_normal_mot_0a69b5c9b02373fb877a90f2b4b0d8e1_0001_1_af2_000000257_0001_17_32_H_._8e5dab46bb8b9fdb8a52196c49b730f0_0001_0001_0000400020_0000001_0 … (protein)
chain: SELELSFRHALENGIPPRQVAKVLIRLLERRGLPPEEIERLIEEALEKVLNVPPEEAQEIIEKAE
B15: il2ra_site1_3nfp_sap_12_mot_HHH_b2_02552_af2_000000235_0001_1_20_H_._HHH_b2_07743_0001_0000100007_0000001_0_0001_af2pred_0001_af2pred (protein)
chain: SSSSEDEKLFEEAERLLEEAKKKGDPRLARRVDELIKLLAKLGDPELARRLFKLVEEIIRNSSSS
B16: il2ra_site2_2erj_sap_24_mot_HHH_b2_00789_000000198_0001_40_54_H_._HHH_eva_0320_af2_0001_0000100002_0000001_0_0001 (protein)
chain: SSSSDEHLRELFRLAVELLAAVARRDPELFEELLREVKRLAEELNNENAKEIVEDLERRFHSSSS
B17: il2ra_site1_1z92_sap_12_mot_3cad0fa5fd511b0551b272d6504d3e9d_0001_1_000000015_0001_37_51_H_._c9a8daa1dfea21d1414aecde54be4f54_0001_1_0001_0000300011_0000001_0_0 … (protein)
chain: SRLERDVRLILELAGDPEKAVRFVERFAKLLFERGDPEAAEELLEVAAEILGDPRLEELLEEIRK
B18: il2ra_site1_3nfp_normal_mot_cc4219192d8ccd35c40e7b68f9a57604_0001_af2_000000124_0001_16_32_H_._HHH_b1_08473_0001_0000600030_0000001_0 (protein)
chain: SSSSSQADEFLERLAEELFEEGDEKQIRAILKLVRHALETLGNPIAEEVARIIEELLEKLSSSSS
B19: il2ra_site1_2b5i_sap_8_mot_HHH_b2_07920_000000157_0001_21_37_H_._HHH_b1_08163_0001_0000600024_0000001_0_0001 (protein)
chain: SSSSSEAARRARELFHEADELDKRGNPEEAEEVLREALELAREAGSPNLARMIEAALRQLGSSSS

Biological target: il2ra, P01589
Experiment: yeast display titration

Apparent Kd, inactive:
B1 no binding seen
B2 > 412 nM
B3 no binding seen
B4 no binding seen
B5 no binding seen
B6 no binding seen
B7 no binding seen
B8 no binding seen
B9 no binding seen
B10 no binding seen
B11 no binding seen
B12 no binding seen
B13 no binding seen
B14 no binding seen
B15 no binding seen
B16 no binding seen
B17 no binding seen
B18 no binding seen
B19 no binding seen

2 entries picked at random from the list so far:
Apparent Kd, inactive:
B16 no binding seen
B9 no binding seen
